PubChem BioAssay AID1259308 | NCATS, 2017
In all, the deposit lists about 59,000 reagents; shown is a part drawn at random. In the full data, about 1,510 (2.6%) are marked active. 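Calls use total luciferase alone and ignore viability, so some active siRNAs may act by altering cell number.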 The numbers tell different reagents against one gene apart.

- Assay: 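Candidate targets for better recombinant protein yield in mammalian cells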 (primary screen)
- Cell system: human HEK293 embryonic kidney cells stably expressing firefly luciferase (HEK-CMV-Luc2-Hygro)
- Reagents: single siRNA against human genes, 0.8 pmol siRNA per well
- Timing: 72 h
- Measurement: 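Luciferase light (ONE-Glo) measured on one replicate plate set and viability (CellTiter-Glo) on the other, scaled to a negative control siRNA, with robust z-scores and luciferase per cell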
- Scale: total luciferase, z-score and total luciferase, % of control: higher = more reporter protein produced; luciferase per cell, z-score: higher = more reporter output per viable cell; viable cells, % of control: higher = more viable cells
- Active means: 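Active when the median/MAD z-score for overall luciferase is greater than 3; a gene was taken forward for validation with new siRNAs if at least two of its three siRNAs passed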
- Meaning of the calls: active = raised luciferase; inactive = no rise

| target gene | siRNA no. | total luciferase, z-score | total luciferase, % of control | luciferase per cell, z-score | viable cells, % of control | activity call |
| --- | --- | --- | --- | --- | --- | --- |
| RAPH1 | 1 | -0.00455 | 81.8 | -0.246 | 97.5 | inactive |
| RAPH1 | 2 | 1.26 | 107 | 0.996 | 92 | inactive |
| RAPH1 | 3 | 2.73 | 136 | 2.59 | 76.9 | inactive |
| MRGPRX2 | 1 | 0.263 | 87.1 | -0.265 | 104 | inactive |
| MRGPRX2 | 2 | -2.27 | 36.7 | -2.08 | 70.8 | inactive |
| MRGPRX2 | 3 | -0.188 | 78.2 | -0.361 | 96.1 | inactive |
| AADACL3 | 1 | -0.651 | 68.9 | 0.795 | 62.5 | inactive |
| AADACL3 | 2 | 4.67 | 175 | 4.21 | 64.4 | active |
| AADACL3 | 3 | 2.52 | 132 | 2.48 | 76.9 | inactive |
| KRT18P8 | 1 | -0.278 | 76.4 | -0.578 | 99.4 | inactive |
| KRT18P8 | 2 | -0.32 | 75.5 | -1.05 | 111 | inactive |
| KRT18P8 | 3 | 1.88 | 119 | 1.55 | 88.8 | inactive |
| TENT2 | 1 | -0.522 | 71.5 | -0.234 | 85 | inactive |
| TENT2 | 2 | 0.112 | 84.1 | 0.153 | 90.3 | inactive |
| TENT2 | 3 | 1.67 | 115 | 0.974 | 99.6 | inactive |
| SPN | 1 | 0.227 | 86.4 | 0.0639 | 94.9 | inactive |
| SPN | 2 | -1.73 | 47.5 | -2.03 | 90.5 | inactive |
| SPN | 3 | -1.97 | 42.6 | -1.76 | 75.6 | inactive |
| CCDC8 | 1 | -0.753 | 66.9 | -0.95 | 96 | inactive |
| CCDC8 | 2 | 0.74 | 96.6 | 1.13 | 80.2 | inactive |
| CCDC8 | 3 | 2.2 | 126 | 1.38 | 97.6 | inactive |
| ADGRF1 | 1 | -0.691 | 68.2 | -0.721 | 92.1 | inactive |
| ADGRF1 | 2 | -0.845 | 65.1 | -0.541 | 83.9 | inactive |
| ADGRF1 | 3 | 3.79 | 157 | 4.75 | 50.4 | active |
| SLC7A5 | 1 | -2.22 | 37.7 | -1.51 | 62.7 | inactive |
| SLC7A5 | 2 | 2.27 | 127 | 1.83 | 87.6 | inactive |
| SLC7A5 | 3 | -0.763 | 66.7 | -1.17 | 101 | inactive |
| SLC25A24 | 1 | 0.351 | 88.9 | 0.141 | 95.7 | inactive |
| SLC25A24 | 2 | -0.199 | 77.9 | 0.191 | 82.8 | inactive |
| SLC25A24 | 3 | 1.07 | 103 | 0.956 | 89.7 | inactive |

Part of the list above, set out differently.
TENT2 #3 — total luciferase, z-score: 1.67; total luciferase, % of control: 115; luciferase per cell, z-score: 0.974; viable cells, % of control: 99.6; activity call: inactive
SPN #1 — total luciferase, z-score: 0.227; total luciferase, % of control: 86.4; luciferase per cell, z-score: 0.0639; viable cells, % of control: 94.9; activity call: inactive
SPN #2 — total luciferase, z-score: -1.73; total luciferase, % of control: 47.5; luciferase per cell, z-score: -2.03; viable cells, % of control: 90.5; activity call: inactive
SPN #3 — total luciferase, z-score: -1.97; total luciferase, % of control: 42.6; luciferase per cell, z-score: -1.76; viable cells, % of control: 75.6; activity call: inactive
CCDC8 #1 — total luciferase, z-score: -0.753; total luciferase, % of control: 66.9; luciferase per cell, z-score: -0.95; viable cells, % of control: 96; activity call: inactive
CCDC8 #2 — total luciferase, z-score: 0.74; total luciferase, % of control: 96.6; luciferase per cell, z-score: 1.13; viable cells, % of control: 80.2; activity call: inactive
CCDC8 #3 — total luciferase, z-score: 2.2; total luciferase, % of control: 126; luciferase per cell, z-score: 1.38; viable cells, % of control: 97.6; activity call: inactive
ADGRF1 #1 — total luciferase, z-score: -0.691; total luciferase, % of control: 68.2; luciferase per cell, z-score: -0.721; viable cells, % of control: 92.1; activity call: inactive
ADGRF1 #2 — total luciferase, z-score: -0.845; total luciferase, % of control: 65.1; luciferase per cell, z-score: -0.541; viable cells, % of control: 83.9; activity call: inactive

Next entries follow:
| target gene | siRNA no. | total luciferase, z-score | total luciferase, % of control | luciferase per cell, z-score | viable cells, % of control | activity call |
| --- | --- | --- | --- | --- | --- | --- |
| LINC00687 | 1 | 0.123 | 84.3 | 0.642 | 79.6 | inactive |
| LINC00687 | 2 | -0.245 | 77 | 0.01 | 85.8 | inactive |
| LINC00687 | 3 | -0.487 | 72.2 | -1.02 | 106 | inactive |
| TMEM145 | 1 | 0.0182 | 82.2 | -0.0377 | 92.8 | inactive |
| TMEM145 | 2 | 1.03 | 102 | 0.743 | 94 | inactive |
| TMEM145 | 3 | -1.9 | 44.1 | -2.45 | 94.1 | inactive |
| MGA | 1 | -0.744 | 67.1 | -0.308 | 81.3 | inactive |
| MGA | 2 | 0.634 | 94.5 | 0.266 | 98.5 | inactive |
| MGA | 3 | -0.355 | 74.8 | 0.562 | 72.1 | inactive |
| NPVF | 1 | -0.375 | 74.4 | -0.216 | 88 | inactive |
| NPVF | 2 | -0.924 | 63.5 | -1.1 | 94.9 | inactive |
| NPVF | 3 | -0.822 | 65.5 | -0.109 | 75.4 | inactive |
| SLC71A2 | 1 | -0.115 | 79.6 | 0.129 | 86 | inactive |
| SLC71A2 | 2 | 0.179 | 85.5 | 0.00436 | 95.4 | inactive |
| SLC71A2 | 3 | 0.87 | 99.2 | 1.4 | 76.8 | inactive |
| AMZ1 | 1 | -0.533 | 71.3 | -0.112 | 82 | inactive |
| AMZ1 | 2 | -1.3 | 56 | -0.694 | 75.1 | inactive |
| AMZ1 | 3 | -0.405 | 73.8 | 0.312 | 76 | inactive |
| ZNF689 | 1 | -0.933 | 63.3 | -0.321 | 77 | inactive |
| ZNF689 | 2 | 1.35 | 109 | 1.07 | 91.7 | inactive |
| ZNF689 | 3 | 0.0624 | 83.1 | 0.362 | 84.4 | inactive |
| TAAR1 | 1 | -0.597 | 70 | -0.944 | 100 | inactive |
| TAAR1 | 2 | 0.156 | 85 | -0.579 | 111 | inactive |
| TAAR1 | 3 | -0.512 | 71.7 | -0.372 | 88.4 | inactive |
| FAM156B | 1 | -1.66 | 48.8 | -2.16 | 96.3 | inactive |
| FAM156B | 2 | 0.535 | 92.5 | 0.674 | 86.6 | inactive |
| FAM156B | 3 | 1.22 | 106 | 1.21 | 86.2 | inactive |
| LRP1 | 1 | -0.173 | 78.4 | 0.047 | 86.6 | inactive |
| LRP1 | 2 | -0.752 | 66.9 | 1.59 | 49.3 | inactive |
| LRP1 | 3 | -0.984 | 62.3 | 0.525 | 60.6 | inactive |
| COL9A3 | 1 | 1.95 | 121 | 2.32 | 73.2 | inactive |
| COL9A3 | 2 | -0.55 | 70.9 | -0.395 | 88 | inactive |
| COL9A3 | 3 | -0.615 | 69.7 | -0.519 | 89.2 | inactive |
| TLCD4 | 1 | -0.433 | 73.3 | 0.178 | 78.1 | inactive |
| TLCD4 | 2 | 1.05 | 103 | 0.695 | 95.7 | inactive |
| TLCD4 | 3 | -1.23 | 57.4 | -1.13 | 86.3 | inactive |
| PAQR8 | 1 | 0.982 | 101 | 2.69 | 55.8 | inactive |
| PAQR8 | 2 | 1.11 | 104 | 0.845 | 93.1 | inactive |
| PAQR8 | 3 | -0.496 | 72 | -0.132 | 83.3 | inactive |
| WFS1 | 1 | 0.402 | 89.9 | 0.182 | 95.8 | inactive |
| WFS1 | 2 | -0.758 | 66.8 | -0.557 | 86.4 | inactive |
| WFS1 | 3 | 2.61 | 134 | 1.24 | 108 | inactive |
| BLVRA | 1 | -0.89 | 64.2 | -1.34 | 102 | inactive |
| BLVRA | 2 | -0.951 | 63 | -1.23 | 97.2 | inactive |
| BLVRA | 3 | 0.614 | 94.1 | -0.103 | 108 | inactive |
